This is an account of results in US20260027258A1, “Antimicrobial Compositions” (Matoke Holdings Limited, priority 2022, published 2026).

Each structure is given as a SMILES string. ≈ marks a conversion by molar mass, not a printed value.

The test concerns C. albicans. Description: Yeast susceptibility testing (EUCAST E.DEF 7.3.2 broth microdilution), C. albicans. Format: cell-based. As to conditions: Candida albicans; C. albicans isolates (n=5); 24 hours read; MIC = growth inhibited by ≥50% (Amphotericin ≥90%); read-out: MIC geometric mean. As to the method: AST was used to determine a Minimum Inhibitory Concentration (MIC) value for each antifungal agent on each strain of Candida. Three comparator drugs were also tested. This allowed the effectiveness of RO-101 gel to be compared to common antifungal drugs often used to treat VVC. Antifungal agents and their concentrations were as follows: RO-101 gel (1×, 2×, 10×, 20×: 1×=0.005%, 2×=0.01%, 10×=0.05% and 20×=0.1% Gox) (1 to 500 mg/L), SurgihoneyRO (1 to 500 mg/L), RO-101 gel 0% negative control (0% Gox) (1 to 500 mg/L), Fluconazole (0.125 to 64 mg/L), Itraconazole (0.015 to 8 mg/L) and Amphotericin (0.015 to 8 mg/L). The EUCAST E.DEF 7.3.2 (EUCAST, 2022a) method for yeast susceptibility testing was followed where possible.
Stock solutions of drugs were prepared with RPMI 1640 medium with 2% glucose. This was prepared by dissolving 20.8 g of RPMI 1640 powder (Sigma, Cat. No. R-6504), 69.1 g of morpholinopropanesulfonic acid (MOPS) (Melford, Cat. No. B2003) and 36 g of glucose (Sigma, Cat. No. G7528) in 800 ml of pharmacy water (Appleton Woods). 10M sodium hydroxide (Sigma, S8045) was added to adjust the pH to 7, and then the RPMI was filter sterilised. De Man, Rogosa & Sharpe (MRS) broth was used to grow the Lactobacillus isolates. MRS broth was prepared by dissolving 51 g of MRS powder (Sigma, 69966) in 1 litre of pharmacy water. 1 ml of Tween 80 (Sigma, P8074) was then added. […]

With `C[C@@H]1[C@H](O)[C@@H](C)/C=C/C=C/C=C/C=C/C=C/C=C/C=C/[C@H](O[C@@H]2O[C@H](C)[C@@H](O)[C@H](N)[C@@H]2O)C[C@@H]2O[C@](O)(C[C@@H](O)C[C@@H](O)[C@H](O)CC[C@@H](O)C[C@@H](O)CC(=O)O[C@H]1C)C[C@H](O)[C@H]2C(=O)O` [Amphotericin], the minimum inhibitory concentration (MIC) was 0.047 µg/mL (≈ 0.0509 µM).
